Sequences of proteins named here, by UniProt entry; tags and fusion partners are left off. Residues count along the entry.
UniProt Q00604, residues 25-133: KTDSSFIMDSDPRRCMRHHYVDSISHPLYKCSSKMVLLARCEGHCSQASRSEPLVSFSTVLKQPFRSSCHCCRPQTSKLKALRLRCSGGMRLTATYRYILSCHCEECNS

According to article PMC8157631:

T1: Retinoschisin (RS1) (human (endogenous in human retina)) (UniProt O15537)
T1 sequence: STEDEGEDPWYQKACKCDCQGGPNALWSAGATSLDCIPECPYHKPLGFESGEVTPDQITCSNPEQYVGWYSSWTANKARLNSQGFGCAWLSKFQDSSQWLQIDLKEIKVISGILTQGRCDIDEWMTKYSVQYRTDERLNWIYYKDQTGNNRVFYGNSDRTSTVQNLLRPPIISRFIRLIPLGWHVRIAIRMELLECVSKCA


How the values were obtained:
[1] = biological target: T1, Retinoschisin (RS1) (human (endogenous in human retina)); assay: affinity purification with mass spectrometry; RS1 or NDP immunoprecipitated complex from human retinal tissue, MALDI-TOF peptide mass fingerprinting, MASCOT search against Swissprot
[2] = biological target: Norrin (NDP) (human (endogenous in human retina)) (UniProt Q00604); assay: as above

Molecule	binding [1]	binding [2]
Norrin (NDP) (from UniProt Q00604 25-133)	no binding	
Retinoschisin (RS1) (protein, UniProt O15537 24-224) STEDEGEDPWYQKACKCDCQGGPNALWSAGATSLDCIPECPYHKPLGFESGEVTPDQITCSNPEQYVGWYSSWTANKARLNSQGFGCAWLSKFQDSSQWLQIDLKEIKVISGILTQGRCDIDEWMTKYSVQYRTDERLNWIYYKDQTGNNRVFYGNSDRTSTVQNLLRPPIISRFIRLIPLGWHVRIAIRMELLECVSKCA		no binding

No constants are given. Whether binding was seen depends on the method and setting. Binding seen in cells or lysates may run through a third protein. These calls come from enrichment with a bait or labelling near it, and not all partners need be listed. A no says only that the protein was not detected with the bait. Where a sequence is shown, tags or fusion partners need not be part of it.
